± gives the standard deviation of the averaged measurements. The list shows a part of the results.

Amino acid sequences for entries named in this document (tags omitted). A change or cut given only in a name is not applied to a line headed by its entry.
UniProt Q8IZ81: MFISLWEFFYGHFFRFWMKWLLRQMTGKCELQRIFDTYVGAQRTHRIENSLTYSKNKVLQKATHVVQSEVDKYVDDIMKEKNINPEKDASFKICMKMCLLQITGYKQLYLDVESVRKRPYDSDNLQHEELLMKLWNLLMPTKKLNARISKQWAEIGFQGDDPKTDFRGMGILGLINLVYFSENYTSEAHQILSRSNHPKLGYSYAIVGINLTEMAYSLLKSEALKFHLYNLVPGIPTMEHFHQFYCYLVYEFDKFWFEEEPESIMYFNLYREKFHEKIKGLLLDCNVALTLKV
UniProt Q8IYE0: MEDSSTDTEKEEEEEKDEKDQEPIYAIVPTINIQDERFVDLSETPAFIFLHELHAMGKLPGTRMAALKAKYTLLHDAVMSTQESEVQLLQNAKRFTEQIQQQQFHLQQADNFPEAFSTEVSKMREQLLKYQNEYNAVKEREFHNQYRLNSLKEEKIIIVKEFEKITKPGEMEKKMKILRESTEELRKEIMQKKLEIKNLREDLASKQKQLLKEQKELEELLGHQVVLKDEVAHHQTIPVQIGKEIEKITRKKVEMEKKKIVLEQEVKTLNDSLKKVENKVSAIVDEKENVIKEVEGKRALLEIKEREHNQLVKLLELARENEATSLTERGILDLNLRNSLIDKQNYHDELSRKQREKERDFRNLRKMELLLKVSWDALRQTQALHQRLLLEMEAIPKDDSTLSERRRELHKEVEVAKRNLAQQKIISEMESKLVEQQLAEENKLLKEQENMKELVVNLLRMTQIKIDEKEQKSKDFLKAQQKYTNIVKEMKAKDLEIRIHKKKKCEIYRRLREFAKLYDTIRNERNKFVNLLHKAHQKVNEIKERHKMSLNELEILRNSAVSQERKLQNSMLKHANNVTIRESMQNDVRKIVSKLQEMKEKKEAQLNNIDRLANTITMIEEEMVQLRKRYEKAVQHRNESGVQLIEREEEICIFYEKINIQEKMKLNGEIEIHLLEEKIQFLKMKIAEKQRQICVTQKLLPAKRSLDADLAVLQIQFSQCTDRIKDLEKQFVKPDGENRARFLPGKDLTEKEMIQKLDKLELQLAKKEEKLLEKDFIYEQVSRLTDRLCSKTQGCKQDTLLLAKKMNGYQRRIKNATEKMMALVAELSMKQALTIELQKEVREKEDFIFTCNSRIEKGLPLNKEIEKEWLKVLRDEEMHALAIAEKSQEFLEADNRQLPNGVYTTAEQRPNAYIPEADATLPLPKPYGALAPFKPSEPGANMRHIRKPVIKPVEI
UniProt Q8N488: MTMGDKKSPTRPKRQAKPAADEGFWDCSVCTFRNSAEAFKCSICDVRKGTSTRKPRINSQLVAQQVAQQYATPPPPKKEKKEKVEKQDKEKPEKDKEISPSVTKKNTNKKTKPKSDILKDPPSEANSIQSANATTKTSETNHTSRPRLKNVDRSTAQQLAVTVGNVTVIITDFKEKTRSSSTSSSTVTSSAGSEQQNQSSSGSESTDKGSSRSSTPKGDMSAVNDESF
UniProt Q8TCS8: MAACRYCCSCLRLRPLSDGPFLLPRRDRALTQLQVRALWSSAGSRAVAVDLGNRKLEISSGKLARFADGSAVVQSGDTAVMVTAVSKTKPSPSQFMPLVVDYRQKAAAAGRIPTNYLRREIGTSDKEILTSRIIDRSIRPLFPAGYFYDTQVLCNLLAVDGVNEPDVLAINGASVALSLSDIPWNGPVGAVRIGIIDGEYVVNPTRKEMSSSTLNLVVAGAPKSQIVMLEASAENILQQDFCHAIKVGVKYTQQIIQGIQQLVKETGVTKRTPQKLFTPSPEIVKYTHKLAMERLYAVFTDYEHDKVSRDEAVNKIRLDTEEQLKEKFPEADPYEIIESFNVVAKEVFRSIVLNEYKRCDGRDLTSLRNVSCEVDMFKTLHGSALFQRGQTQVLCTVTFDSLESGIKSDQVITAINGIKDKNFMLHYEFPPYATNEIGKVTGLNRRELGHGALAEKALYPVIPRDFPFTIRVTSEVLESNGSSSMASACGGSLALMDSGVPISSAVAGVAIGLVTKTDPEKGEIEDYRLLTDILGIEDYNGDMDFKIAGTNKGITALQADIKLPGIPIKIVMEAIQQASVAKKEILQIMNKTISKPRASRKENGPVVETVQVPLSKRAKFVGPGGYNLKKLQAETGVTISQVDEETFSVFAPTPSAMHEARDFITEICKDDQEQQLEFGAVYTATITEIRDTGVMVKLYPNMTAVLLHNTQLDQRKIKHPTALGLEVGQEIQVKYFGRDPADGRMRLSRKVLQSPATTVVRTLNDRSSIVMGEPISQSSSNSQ
UniProt Q8ND24: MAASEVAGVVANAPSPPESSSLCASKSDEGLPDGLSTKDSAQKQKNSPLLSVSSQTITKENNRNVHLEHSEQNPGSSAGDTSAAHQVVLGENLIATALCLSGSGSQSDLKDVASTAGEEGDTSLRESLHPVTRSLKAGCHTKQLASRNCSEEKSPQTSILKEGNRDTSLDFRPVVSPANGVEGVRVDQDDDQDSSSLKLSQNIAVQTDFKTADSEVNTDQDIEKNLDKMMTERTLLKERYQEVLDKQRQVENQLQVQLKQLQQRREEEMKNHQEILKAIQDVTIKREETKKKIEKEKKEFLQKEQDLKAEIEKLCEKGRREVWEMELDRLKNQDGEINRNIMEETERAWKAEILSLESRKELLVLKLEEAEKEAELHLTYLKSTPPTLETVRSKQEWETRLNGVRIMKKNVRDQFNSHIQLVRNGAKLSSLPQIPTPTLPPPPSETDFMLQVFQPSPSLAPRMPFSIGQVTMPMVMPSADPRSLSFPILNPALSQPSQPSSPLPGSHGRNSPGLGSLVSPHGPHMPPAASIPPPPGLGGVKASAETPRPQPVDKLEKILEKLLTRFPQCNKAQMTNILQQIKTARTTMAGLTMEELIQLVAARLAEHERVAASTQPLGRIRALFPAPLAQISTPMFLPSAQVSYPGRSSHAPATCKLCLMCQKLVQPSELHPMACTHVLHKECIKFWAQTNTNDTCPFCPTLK
UniProt Q8WTS6: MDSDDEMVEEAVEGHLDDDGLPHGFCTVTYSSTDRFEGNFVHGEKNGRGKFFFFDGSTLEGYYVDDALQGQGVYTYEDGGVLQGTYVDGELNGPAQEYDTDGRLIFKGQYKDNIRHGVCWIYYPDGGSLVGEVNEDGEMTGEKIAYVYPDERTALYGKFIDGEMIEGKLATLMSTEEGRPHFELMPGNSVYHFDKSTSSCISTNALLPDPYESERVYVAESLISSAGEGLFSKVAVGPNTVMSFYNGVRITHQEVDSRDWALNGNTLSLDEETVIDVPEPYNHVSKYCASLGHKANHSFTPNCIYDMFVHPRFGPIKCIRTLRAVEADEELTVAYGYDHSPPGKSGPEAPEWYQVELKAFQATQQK
UniProt Q8IYB7: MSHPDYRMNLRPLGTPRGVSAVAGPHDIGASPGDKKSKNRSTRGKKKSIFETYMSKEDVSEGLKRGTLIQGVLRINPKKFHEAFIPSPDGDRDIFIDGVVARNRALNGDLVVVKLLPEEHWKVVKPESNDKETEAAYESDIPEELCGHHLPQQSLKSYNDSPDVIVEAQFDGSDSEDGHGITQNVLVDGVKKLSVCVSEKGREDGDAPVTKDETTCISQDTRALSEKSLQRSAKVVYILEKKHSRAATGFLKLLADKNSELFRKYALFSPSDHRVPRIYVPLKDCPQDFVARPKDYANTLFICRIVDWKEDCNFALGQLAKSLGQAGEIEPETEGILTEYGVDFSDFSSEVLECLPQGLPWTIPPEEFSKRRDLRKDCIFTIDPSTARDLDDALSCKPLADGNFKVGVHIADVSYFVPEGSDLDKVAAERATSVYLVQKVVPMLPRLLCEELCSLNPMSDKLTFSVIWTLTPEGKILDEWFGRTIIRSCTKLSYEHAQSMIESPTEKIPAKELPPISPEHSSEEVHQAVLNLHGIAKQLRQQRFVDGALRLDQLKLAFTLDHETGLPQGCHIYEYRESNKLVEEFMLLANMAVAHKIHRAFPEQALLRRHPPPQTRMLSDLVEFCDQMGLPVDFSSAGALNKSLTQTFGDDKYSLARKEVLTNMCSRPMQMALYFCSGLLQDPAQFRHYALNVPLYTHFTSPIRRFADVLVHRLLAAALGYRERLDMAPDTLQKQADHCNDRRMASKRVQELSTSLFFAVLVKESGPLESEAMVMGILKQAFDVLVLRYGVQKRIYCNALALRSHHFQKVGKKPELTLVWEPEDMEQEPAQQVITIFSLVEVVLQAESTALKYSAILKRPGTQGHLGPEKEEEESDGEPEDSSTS
UniProt Q8NHM5: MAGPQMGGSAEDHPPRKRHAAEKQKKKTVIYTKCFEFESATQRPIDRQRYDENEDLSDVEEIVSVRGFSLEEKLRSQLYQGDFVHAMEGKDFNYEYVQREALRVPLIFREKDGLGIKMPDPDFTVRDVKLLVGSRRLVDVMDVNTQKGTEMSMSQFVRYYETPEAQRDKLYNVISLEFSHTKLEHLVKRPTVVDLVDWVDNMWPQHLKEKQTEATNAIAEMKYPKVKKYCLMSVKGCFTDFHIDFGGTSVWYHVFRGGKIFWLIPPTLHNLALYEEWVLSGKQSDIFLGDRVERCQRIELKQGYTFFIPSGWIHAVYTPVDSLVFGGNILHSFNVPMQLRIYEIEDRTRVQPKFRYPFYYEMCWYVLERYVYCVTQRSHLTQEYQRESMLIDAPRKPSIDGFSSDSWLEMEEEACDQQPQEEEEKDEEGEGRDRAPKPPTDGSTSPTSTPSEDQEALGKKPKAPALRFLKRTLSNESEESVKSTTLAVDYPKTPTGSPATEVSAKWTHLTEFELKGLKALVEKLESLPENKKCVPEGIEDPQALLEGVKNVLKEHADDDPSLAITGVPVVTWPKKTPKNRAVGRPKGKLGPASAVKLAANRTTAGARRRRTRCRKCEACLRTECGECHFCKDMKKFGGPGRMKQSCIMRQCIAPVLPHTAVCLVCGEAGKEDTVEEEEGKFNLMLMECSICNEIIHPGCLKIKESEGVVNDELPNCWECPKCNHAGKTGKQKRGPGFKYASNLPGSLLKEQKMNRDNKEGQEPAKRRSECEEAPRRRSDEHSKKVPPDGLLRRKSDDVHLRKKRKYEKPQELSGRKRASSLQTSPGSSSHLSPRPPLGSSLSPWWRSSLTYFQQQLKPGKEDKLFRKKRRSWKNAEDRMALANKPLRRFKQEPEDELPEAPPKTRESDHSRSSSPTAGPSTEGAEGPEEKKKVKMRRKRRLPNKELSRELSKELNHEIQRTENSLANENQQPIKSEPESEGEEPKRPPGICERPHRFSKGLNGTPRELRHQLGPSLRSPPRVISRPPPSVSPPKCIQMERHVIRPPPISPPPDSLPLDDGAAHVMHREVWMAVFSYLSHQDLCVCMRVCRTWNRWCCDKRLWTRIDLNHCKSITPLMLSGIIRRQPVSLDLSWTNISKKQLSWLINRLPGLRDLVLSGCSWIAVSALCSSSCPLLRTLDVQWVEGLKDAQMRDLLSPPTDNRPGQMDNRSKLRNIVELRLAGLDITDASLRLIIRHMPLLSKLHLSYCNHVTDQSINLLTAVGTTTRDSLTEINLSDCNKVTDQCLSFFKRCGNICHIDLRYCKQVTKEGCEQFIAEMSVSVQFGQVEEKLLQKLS
UniProt Q8IVD9: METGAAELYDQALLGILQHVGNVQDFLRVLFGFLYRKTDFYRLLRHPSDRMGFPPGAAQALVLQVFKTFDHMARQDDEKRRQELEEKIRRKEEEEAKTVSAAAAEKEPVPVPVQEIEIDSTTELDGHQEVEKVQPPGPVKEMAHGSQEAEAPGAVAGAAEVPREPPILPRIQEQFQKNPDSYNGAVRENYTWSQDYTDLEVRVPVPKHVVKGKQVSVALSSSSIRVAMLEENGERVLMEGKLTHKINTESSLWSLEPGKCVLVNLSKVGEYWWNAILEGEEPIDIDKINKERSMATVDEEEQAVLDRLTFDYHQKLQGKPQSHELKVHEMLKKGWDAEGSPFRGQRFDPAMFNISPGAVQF

Compound in the first assay: Nc1nc2c(ncn2[C@@H]2O[C@H](COP(=O)(O)OP(=O)(O)OP(=O)(O)O)[C@@H](O)[C@H]2O)c(=O)[nH]1 [guanosine triphosphate]
The assay is described as follows: NP40-soluble protein abundance relative to vehicle (solubility fold change) (ratio); higher = more soluble protein in presence of GTP. As to conditions: concentration: 2mM. In short, it runs like this: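 Crude Jurkat lysate, prepared by Dounce homogenisation, was exposed to eight concentrations from 0.1 to 10 mM for 10 min at room temperature and then 3 min at 37 °C. Solubilisation used 0.8% NP40 with benzonase for 60 min at 4 °C, followed by ultracentrifugation and TMT labelling of the supernatant for LC-MS/MS. After vsn normalisation of intensities, each value is the fold change against the detergent-processed vehicle within each replicate, across three independent experiments.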
For the target UniProt Q86YS7 and related entries, the NP40-soluble protein abundance is 1 ± 0.057.

Take UniProt Q8N108 and related entries: the NP40-soluble protein abundance was found to be 0.948 ± 0.068.

In the case of UniProt Q8N4V1 and related entries, the NP40-soluble protein abundance worked out at 0.978 ± 0.12.

In the case of TTC39C (UniProt Q8N584), the NP40-soluble protein abundance turned out to be 0.925 ± 0.054.

On to UniProt Q8IWI9 and related entries, for which the NP40-soluble protein abundance turned out to be 1.08 ± 0.073.

Take UniProt Q8TED0 and related entries: the NP40-soluble protein abundance is 1.23 ± 0.12.

For the target UniProt Q8IY17 and related entries, the NP40-soluble protein abundance was found to be 1.04 ± 0.078.

For SMC5 (UniProt Q8IY18), the NP40-soluble protein abundance is 1.02 ± 0.03.

COMMD1 (UniProt Q8N668): the NP40-soluble protein abundance was found to be 0.905 ± 0.03.

As for UniProt Q8IZ81 and related entries, the NP40-soluble protein abundance was 0.934 ± 0.069.

On to UniProt Q8IX90, for which the NP40-soluble protein abundance was 0.971 ± 0.079.

As for GSPT2 (UniProt Q8IYD1), the NP40-soluble protein abundance is 0.925 ± 0.065.

Consider UniProt Q8IYE0 and related entries, for which the NP40-soluble protein abundance stood at 0.945 ± 0.15.

In the case of UniProt Q8NFD5 and related entries, the NP40-soluble protein abundance is 1.13 ± 0.1.

As for “Q86WV7 and related entries (UniProt Q96MW1)”, the NP40-soluble protein abundance is 1 ± 0.067.

For the target UBASH3B (UniProt Q8TF42), the NP40-soluble protein abundance came out at 0.986 ± 0.091.

For FBXO22 (UniProt Q8NEZ5), the NP40-soluble protein abundance was determined as 0.917 ± 0.078.

As for UniProt Q8NHH9 and related entries, the NP40-soluble protein abundance came to 1.03 ± 0.1.

Consider RYBP (UniProt Q8N488), for which the NP40-soluble protein abundance amounted to 0.952 ± 0.16.

Regarding PNPT1 (UniProt Q8TCS8), the NP40-soluble protein abundance worked out at 1.01 ± 0.042.

With NEK9 (UniProt Q8TD19), the NP40-soluble protein abundance was determined as 0.996 ± 0.046.

For the target UniProt Q8N9R8 and related entries, the NP40-soluble protein abundance was determined as 1.07 ± 0.073.

With UniProt Q86X83 and related entries, the NP40-soluble protein abundance was found to be 0.958 ± 0.022.

As for UniProt Q8TAF3 and related entries, the NP40-soluble protein abundance was determined as 1.01 ± 0.064.

As to RNF214 (UniProt Q8ND24), the NP40-soluble protein abundance is 0.931 ± 0.088.

FTSJ3 (UniProt Q8IY81): the NP40-soluble protein abundance is 1.05 ± 0.045.

As to UniProt Q8NE86 and related entries, the NP40-soluble protein abundance worked out at 0.975 ± 0.1.

Take UniProt Q8NC51 and related entries: the NP40-soluble protein abundance came out at 1.08 ± 0.031.

SETD7 (UniProt Q8WTS6): the NP40-soluble protein abundance was 0.866 ± 0.084.

As for UniProt Q8IYB7 and related entries, the NP40-soluble protein abundance was 1.03 ± 0.033.

UniProt Q8NHM5 and related entries: the NP40-soluble protein abundance amounted to 1.06 ± 0.087.

CMIP (UniProt Q8IY22): the NP40-soluble protein abundance stood at 0.899 ± 0.064.

Consider IRF2BP1 (UniProt Q8IU81), for which the NP40-soluble protein abundance was 0.956 ± 0.069.

UniProt Q8N6Q8: the NP40-soluble protein abundance came to 1.01 ± 0.22.

As to UniProt Q8ND82 and related entries, the NP40-soluble protein abundance is 1.08 ± 0.065.

EXOC8 (UniProt Q8IYI6): the NP40-soluble protein abundance amounted to 0.958 ± 0.039.

Take NUDCD3 (UniProt Q8IVD9): the NP40-soluble protein abundance came out at 0.917 ± 0.012.

The same assay, now with this note: concentration: 4mM.
UniProt Q86YS7 and related entries: the NP40-soluble protein abundance was 0.968 ± 0.042.

With UniProt Q8N108 and related entries, the NP40-soluble protein abundance was determined as 0.989 ± 0.097.

On to UniProt Q8N4V1 and related entries, for which the NP40-soluble protein abundance is 0.907 ± 0.038.

With TTC39C (UniProt Q8N584), the NP40-soluble protein abundance worked out at 0.888 ± 0.047.

As to UniProt Q8IWI9 and related entries, the NP40-soluble protein abundance is 1.1 ± 0.11.

As to UniProt Q8TED0 and related entries, the NP40-soluble protein abundance is 1.42 ± 0.22.

Consider UniProt Q8IY17 and related entries, for which the NP40-soluble protein abundance turned out to be 0.929 ± 0.19.

In the case of SMC5 (UniProt Q8IY18), the NP40-soluble protein abundance stood at 1.009 ± 0.0054.

With COMMD1 (UniProt Q8N668), the NP40-soluble protein abundance was 0.903 ± 0.04.

UniProt Q8IZ81 and related entries: the NP40-soluble protein abundance is 0.944 ± 0.063.

On to UniProt Q8IX90, for which the NP40-soluble protein abundance stood at 0.95 ± 0.042.

For the target GSPT2 (UniProt Q8IYD1), the NP40-soluble protein abundance stood at 0.901 ± 0.086.

For the target UniProt Q8IYE0 and related entries, the NP40-soluble protein abundance came out at 0.878 ± 0.19.

In the case of UniProt Q8NFD5 and related entries, the NP40-soluble protein abundance turned out to be 1.12 ± 0.13.

As for “Q86WV7 and related entries (UniProt Q96MW1)”, the NP40-soluble protein abundance worked out at 0.989 ± 0.036.

With UBASH3B (UniProt Q8TF42), the NP40-soluble protein abundance is 1.01 ± 0.049.

Regarding FBXO22 (UniProt Q8NEZ5), the NP40-soluble protein abundance came out at 0.947 ± 0.061.

Regarding UniProt Q8NHH9 and related entries, the NP40-soluble protein abundance came out at 0.97 ± 0.069.

For RYBP (UniProt Q8N488), the NP40-soluble protein abundance is 0.937 ± 0.13.

PNPT1 (UniProt Q8TCS8): the NP40-soluble protein abundance was determined as 1 ± 0.06.

As for NEK9 (UniProt Q8TD19), the NP40-soluble protein abundance stood at 1.02 ± 0.037.

Regarding UniProt Q8N9R8 and related entries, the NP40-soluble protein abundance was found to be 1.1 ± 0.07.

Take UniProt Q86X83 and related entries: the NP40-soluble protein abundance was found to be 0.975 ± 0.013.

For the target UniProt Q8TAF3 and related entries, the NP40-soluble protein abundance worked out at 0.997 ± 0.078.

For RNF214 (UniProt Q8ND24), the NP40-soluble protein abundance was determined as 0.916 ± 0.093.

For the target FTSJ3 (UniProt Q8IY81), the NP40-soluble protein abundance stood at 1.08 ± 0.039.

As for UniProt Q8NE86 and related entries, the NP40-soluble protein abundance turned out to be 1.02 ± 0.1.

Regarding UniProt Q8NC51 and related entries, the NP40-soluble protein abundance was 1.162 ± 0.0055.

For SETD7 (UniProt Q8WTS6), the NP40-soluble protein abundance was 0.877 ± 0.1.

Consider UniProt Q8IYB7 and related entries, for which the NP40-soluble protein abundance came out at 0.976 ± 0.025.

UniProt Q8NHM5 and related entries: the NP40-soluble protein abundance turned out to be 1 ± 0.045.

For the target CMIP (UniProt Q8IY22), the NP40-soluble protein abundance amounted to 0.894 ± 0.022.

IRF2BP1 (UniProt Q8IU81): the NP40-soluble protein abundance was 0.95 ± 0.071.

For the target UniProt Q8N6Q8, the NP40-soluble protein abundance was determined as 0.983 ± 0.09.

In the case of UniProt Q8ND82 and related entries, the NP40-soluble protein abundance turned out to be 1.08 ± 0.14.

As to EXOC8 (UniProt Q8IYI6), the NP40-soluble protein abundance stood at 0.957 ± 0.049.

Regarding NUDCD3 (UniProt Q8IVD9), the NP40-soluble protein abundance worked out at 0.879 ± 0.062.

The assay is the same for the next values; noted with them: concentration: 6mM.
As for UniProt Q86YS7 and related entries, the NP40-soluble protein abundance came to 1 ± 0.048.

Consider UniProt Q8N108 and related entries, for which the NP40-soluble protein abundance is 0.954 ± 0.071.

As for UniProt Q8N4V1 and related entries, the NP40-soluble protein abundance was found to be 0.995 ± 0.053.

As to TTC39C (UniProt Q8N584), the NP40-soluble protein abundance was found to be 0.927 ± 0.032.

For the target UniProt Q8IWI9 and related entries, the NP40-soluble protein abundance worked out at 1.11 ± 0.11.

Take UniProt Q8TED0 and related entries: the NP40-soluble protein abundance is 1.51 ± 0.2.

Turning to UniProt Q8IY17 and related entries, the NP40-soluble protein abundance stood at 1.0267 ± 0.00057.

With SMC5 (UniProt Q8IY18), the NP40-soluble protein abundance is 1.04 ± 0.019.

For COMMD1 (UniProt Q8N668), the NP40-soluble protein abundance was determined as 0.96 ± 0.026.

UniProt Q8IZ81 and related entries: the NP40-soluble protein abundance is 0.877 ± 0.048.

Turning to UniProt Q8IX90, the NP40-soluble protein abundance was 0.977 ± 0.041.

Take GSPT2 (UniProt Q8IYD1): the NP40-soluble protein abundance came out at 0.907 ± 0.056.

For UniProt Q8IYE0 and related entries, the NP40-soluble protein abundance was 0.944 ± 0.21.

In the case of UniProt Q8NFD5 and related entries, the NP40-soluble protein abundance turned out to be 1.12 ± 0.14.

With “Q86WV7 and related entries (UniProt Q96MW1)”, the NP40-soluble protein abundance worked out at 0.997 ± 0.11.

Turning to UBASH3B (UniProt Q8TF42), the NP40-soluble protein abundance is 0.948 ± 0.069.

With FBXO22 (UniProt Q8NEZ5), the NP40-soluble protein abundance was 0.9 ± 0.053.

Take UniProt Q8NHH9 and related entries: the NP40-soluble protein abundance came out at 0.953 ± 0.065.

With RYBP (UniProt Q8N488), the NP40-soluble protein abundance came out at 0.948 ± 0.14.

Consider PNPT1 (UniProt Q8TCS8), for which the NP40-soluble protein abundance was determined as 0.969 ± 0.038.

On to NEK9 (UniProt Q8TD19), for which the NP40-soluble protein abundance came out at 0.976 ± 0.035.

With UniProt Q8N9R8 and related entries, the NP40-soluble protein abundance is 1.04 ± 0.08.

Turning to UniProt Q86X83 and related entries, the NP40-soluble protein abundance was found to be 0.938 ± 0.016.

As for UniProt Q8TAF3 and related entries, the NP40-soluble protein abundance turned out to be 1 ± 0.019.

For the target RNF214 (UniProt Q8ND24), the NP40-soluble protein abundance was found to be 0.911 ± 0.071.

As for FTSJ3 (UniProt Q8IY81), the NP40-soluble protein abundance stood at 1.12 ± 0.052.

Regarding UniProt Q8NE86 and related entries, the NP40-soluble protein abundance worked out at 0.968 ± 0.051.

Turning to UniProt Q8NC51 and related entries, the NP40-soluble protein abundance was found to be 1.26 ± 0.067.

For SETD7 (UniProt Q8WTS6), the NP40-soluble protein abundance is 0.887 ± 0.076.

As for UniProt Q8IYB7 and related entries, the NP40-soluble protein abundance was found to be 0.94 ± 0.023.

As for UniProt Q8NHM5 and related entries, the NP40-soluble protein abundance is 1.09 ± 0.059.

Take CMIP (UniProt Q8IY22): the NP40-soluble protein abundance was 0.954 ± 0.029.

For IRF2BP1 (UniProt Q8IU81), the NP40-soluble protein abundance is 0.946 ± 0.055.

As for UniProt Q8N6Q8, the NP40-soluble protein abundance was found to be 0.952 ± 0.051.

For UniProt Q8ND82 and related entries, the NP40-soluble protein abundance was 1.11 ± 0.21.

For EXOC8 (UniProt Q8IYI6), the NP40-soluble protein abundance was determined as 0.949 ± 0.042.

On to NUDCD3 (UniProt Q8IVD9), for which the NP40-soluble protein abundance turned out to be 0.901 ± 0.031.

The record behind these values is the supplement of paper PMC6411743.
